Laboratory results taken from publication PMC6956814, “Deubiquitinase USP28 inhibits ubiquitin ligase KLHL2-mediated uridine-cytidine kinase 1 degradation and confers sensitivity to 5'-azacytidine-resistant human leukemia cells” (Theranostics, 2020).
These are yes or no findings as the source states them, for the method shown. In cells and extracts the contact can be indirect. Tags and fused reporters may be left off the sequences shown.

Tests used:
[1] = target: C-terminal fragment of UCK1 (human); test: pull-down; GST-tagged fragments of UCK1 (and truncated KLHL2 fragments) tested against the other protein, immunoblot; Figure 1F
[2] = target: N-terminal fragment of UCK1 (human); test: as above

B1: His-tagged KLHL2 protein (protein, UniProt O95198 1-593)
chain: METPPLPPACTKQGHQKPLDSKDDNTEKHCPVTVNPWHMKKAFKVMNELRSQNLLCDVTIVAEDMEISAHRVVLAACSPYFHAMFTGEMSESRAKRVRIKEVDGWTLRMLIDYVYTAEIQVTEENVQVLLPAAGLLQLQDVKKTCCEFLESQLHPVNCLGIRAFADMHACTDLLNKANTYAEQHFADVVLSEEFLNLGIEQVCSLISSDKLTISSEEKVFEAVIAWVNHDKDVRQEFMARLMEHVRLPLLPREYLVQRVEEEALVKNSSACKDYLIEAMKYHLLPTEQRILMKSVRTRLRTPMNLPKLMVVVGGQAPKAIRSVECYDFKEERWHQVAELPSRRCRAGMVYMAGLVFAVGGFNGSLRVRTVDSYDPVKDQWTSVANMRDRRSTLGAAVLNGLLYAVGGFDGSTGLSSVEAYNIKSNEWFHVAPMNTRRSSVGVGVVGGLLYAVGGYDGASRQCLSTVECYNATTNEWTYIAEMSTRRSGAGVGVLNNLLYAVGGHDGPLVRKSVEVYDPTTNAWRQVADMNMCRRNAGVCAVNGLLYVVGGDDGSCNLASVEYYNPTTDKWTVVSSCMSTGRSYAGVTVIDKPL
- binding [1]: no binding
- binding [2]: no binding
